Reference: patent US6562606B1, “Methods and compositions for disrupting the epithelial barrier function” (The Regents of the University of California, priority 1993, dated 2003)
At least one compound was matched to its structure with a doubt left.

System: intact pig skin
Assay: TEWL of intact pig skin under occlusion (Hilltop chamber), testosterone formulations
Assay type: in vivo
Details: Tables 9-11

COC(=O)C1=C(C)NC(C)=C(C(=O)OCCN(C)Cc2ccccc2)C1c1cccc([N+](=O)[O-])c1 (stereo not shown) [NIC, Nicardipine]
barrier integrity / barrier permeability (TEWL) vs occlusion and TS controls, in words: increase barrier permeability to TS to a degree significantly superior to that provided by either control at all time points
